# Primary screen of a compound library

Measurements from “University of Dundee, Small-Polar-MMV Screening Library” (2021), ChEMBL document CHEMBL3988442.

Values are the deposited “Percent Effect”, in %.
The controls that fix the scale are not given in the record; negative values are as filed.
The compounds are a random part of those screened.

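Whole-parasite assay of Trypanosoma brucei over 72 hours; the read-out is not stated. Tested at 30 µM. Direction is inferred from retests: higher values go with stronger inhibition. Values scatter widely below zero; nearly all retest evidence comes from the higher of the two concentrations used. Of about 64,000 compounds tested this way, about 940 (1.5%) reached 50% or more in at least one test.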

| compound | percent effect |
|---|---|
| `Cc1cccc(C(=O)N2CCCSCC2CN2CCCC2)c1` (stereo unspecified) | 6.192 |
| `O=C(O)C(F)(F)F.O=C(O)C(F)(F)F.[H][C@]12CCN(c3ncc(F)cn3)[C@@]1([H])CCC(COCc1cccnc1)O2` (stereo partly specified) | -9.519 |
| `COCCn1cc2c(n1)C(CNCc1ccsc1)OCC2.O=C(O)C(F)(F)F` (stereo unspecified) | -36.05 |
| `Cc1nc(C)n(CC2CN(Cc3cccnc3)Cc3nccn3C2)n1.O=C(O)C(F)(F)F.O=C(O)C(F)(F)F` (stereo unspecified) | -25.78 |
| `CC(=O)N1CCC2(C1)c1ccccc1S(=O)(=O)N2CCC(C)C` (stereo unspecified) | -2.279 |
| `CSc1nnc(C2CCN(C(=O)N3CCOCC3)CC2)n1C(C)C` | -16.13 |
| `O=C(O)C(F)(F)F.[H][C@@]12CN(c3ccccn3)C[C@@]1([H])N(CC(=O)N(C)C)C(=O)CO2` | -4.577 |
| `CN(C)CCN(Cc1cccc(C(F)(F)F)c1)C(=O)c1cc[nH]n1` | -29.46 |
| `Cn1ccnc1CN1CCOC(Cc2ccccc2)C1` (stereo unspecified) | -3.356 |
| `Cc1ccsc1CN1CCCC(CNC(=O)c2ccc(N)nc2)C1` (stereo unspecified) | -31.77 |
| `N#Cc1cc2c(nc1SCc1cc(O)nc(O)n1)CCCC2` | -33.44 |
| `CN(Cc1cccc(C#N)c1)S(=O)(=O)N1CCOCC1` | 0.7696 |
| `CC(C)CC(=O)N1CCC2(CC1)OC(C(N)=O)Cn1ccnc12.O=C(O)C(F)(F)F` (stereo unspecified) | -52.43 |
| `O=C(CC1OCCc2ccccc21)NCC1(O)CCCCC1` (stereo unspecified) | -20.85 |
| `Cc1ccc(CN2CCN(c3nc4c(s3)c(C)nn4C)C(C)C2=O)cc1` (stereo unspecified) | -43.41 |
| `C=Cc1ccc(C(=O)N2CCCC(Nc3ccccc3)C2)cc1` (stereo unspecified) | -14.16 |
| `Cc1ncsc1CCC(=O)N1CCn2cccc2C1c1cccnc1` (stereo unspecified) | 4.612 |
| `Cc1nc(C)n(CC2CCCCN2Cc2nc(-c3ccco3)no2)n1` (stereo unspecified) | 10.52 |
| `CCN1CCc2[nH]cnc2C12CCN(c1ccc(Cl)cn1)CC2` | -27.98 |
| `[H][C@@]12CS(=O)(=O)C[C@]1([H])NCCN2c1ccnc(N(C)CC)n1` | -11.39 |
| `O=C(O)C(F)(F)F.O=C(O)C(F)(F)F.[H][C@@]12C[C@@H](OCc3ccccc3)CN1CCN(Cc1nccn1C)C2` | 25.33 |
| `O=C(CN1CCOCC1)N(c1ccccc1)c1ccccc1` | -34.49 |
| `CC(C)CC(O)C1CCN(C(=O)c2ccc(C(C)C)[nH]c2=O)CC1` (stereo unspecified) | -20.2 |
| `O=C(O)C(F)(F)F.[H][C@@]12CCCO[C@]1([H])[C@H](NS(=O)(=O)CC)CN(Cc1cc(C)on1)C2` | 13.56 |
| `COc1cc(NC(=O)c2cscn2)ncn1` | 4.073 |
| `CN(C)C(C)(C)CNCc1c[nH]nc1-c1cc2ccccc2o1` | -47.94 |
| `CS(=O)(=O)c1cccc(C(=O)NCc2nc3cc(F)ccc3[nH]2)c1` | -17.27 |
| `Cc1cc(CN(C)c2nc(-c3ccccn3)nc3c2CCNCC3)n[nH]1` | -37.22 |
| `O=C(c1ccno1)N1CCn2cc(CN3CCCCC3)nc2C1` | -108 |
| `[H][C@@]12CN(C)C[C@]1([H])N(CCc1ccc(OC)cc1)C(=O)O2` | -2.12 |
| `Cn1c(CN2CCCC2)nnc1C1CCCN(C(=O)N2CCOCC2)C1` (stereo unspecified) | -28.47 |
| `CC(=O)c1c(F)cccc1N1CCC(NS(=O)(=O)c2ccccc2)CC1` | -38.34 |
| `COc1cccc(CN(C(=O)NC2CC2)C2CCC(O)CC2)c1` (stereo unspecified) | -21.35 |
| `CC(C)Cn1cncc1-c1nc2c([nH]1)CCCNC2=O` | -24.09 |
| `Cc1cnccc1NCCNC1CCN(CC(C)C)CC1` | 16.61 |
| `CN1CCCC(c2n[nH]c3ncccc23)C1` (stereo unspecified) | 10.18 |
| `[H][C@@]12CS(=O)(=O)C[C@]1([H])N(C(=O)CSc1ccccn1)CCN2CCO` | -73.24 |
| `O=C(c1ncc[nH]1)N1CCC(Cn2cc(-c3cccc(Cl)c3)nn2)CC1` | -7.506 |
| `Cn1/c(=N/C(=O)CSCC(=O)Nc2nccs2)sc2ccccc21` | -3.076 |
| `CC(C)n1c(C2CCCN(CCS(C)(=O)=O)C2)nc2ccccc21` (stereo unspecified) | 26.29 |
| `CCN1Cc2cc(F)ccc2N(CC(O)C(F)(F)F)CCC1=O` (stereo unspecified) | 2.982 |
| `Cc1cc(Br)c(O)c(-c2nc(N3CCOCC3)sc2C)c1` | 13.62 |
| `Cl.Cn1cc([C@@H]2CN(S(=O)(=O)c3ccccc3F)C[C@H]2N)c2ccncc21` | 53.59 |
| `Cc1noc(C)c1CN(C)C(=O)c1cnc(C2CC2)nc1O` | -58.89 |
| `COc1cc(Cl)cc(CN2CCCC(N3CCOCC3)C2)c1OC` (stereo unspecified) | -28.73 |
| `COCC1CC2(CCN(CC3CC3)CC2)CN1c1ncccn1.O=C(O)C(F)(F)F.O=C(O)C(F)(F)F` (stereo unspecified) | -4.821 |
| `O=C(COc1coc(CN2CCOCC2)cc1=O)Nc1ccc(Cl)cc1` | -29.17 |
| `CCCn1ccnc1CN1CCC(O)(CN2CCCCC2)C1` (stereo unspecified) | 3.097 |
| `CC(=O)N1CCCN(Cc2nnc(C(C)(C)C)o2)CC1` | -47.64 |
| `Cc1noc(CS(=O)(=O)C(C)C(=O)N(C)c2ccccc2)n1` (stereo unspecified) | -21.09 |
| `O=C(CC1CCCC1)N[C@H]1CN(Cc2c[nH]cn2)C[C@@H]1C1CC1` | -17.27 |
| `CCc1nccn1CCCNc1nccc(-c2c(C)nn(C)c2C)n1` | -7.657 |
| `Cc1sc2nc(C(F)(F)F)nc(N3CCCN(C)CC3)c2c1C` | -12.49 |
| `O=C(CCc1cn[nH]c1)N1CCC(C2CCN(c3ncccn3)CC2)C1` (stereo unspecified) | -12.56 |
| `CCCc1nc(CN(CC)Cc2ccc(S(C)(=O)=O)cc2)no1` | -14.01 |
| `Oc1ccc(Cl)cc1CNCc1ccccc1C(F)(F)F` | -13.07 |
| `O=C(O)C(F)(F)F.O=C(O)C(F)(F)F.c1ccc(OCc2nnc3n2CCN(CC2CCOCC2)C3)nc1` | -18.97 |
| `O=C(O)c1cc(-c2ccncc2)cc(S(=O)(=O)N2CCCCCC2)c1` | -6.871 |
| `O=C(O)C(F)(F)F.O=C(O)C(F)(F)F.[H][C@@]12CCC(=O)N(c3cnn(C)c3)[C@]1([H])CCN2Cc1ccncc1` | 20.6 |
| `CC(C)N(C(=O)c1csc(-c2ccoc2)n1)C1CCOCC1` | -11.27 |
| `O=C(C1CCCc2[nH]ncc21)N1CCCCCC1` (stereo unspecified) | -38.24 |
| `COc1cc(CN2CCCC(Nc3cccc(F)c3)C2)cc(OC)c1O` (stereo unspecified) | -24.04 |
| `COc1cc(CNCC(O)c2ccc(F)c(F)c2)cc2c1OCO2` (stereo unspecified) | 4.493 |
| `O=C(CCn1nc(C(=O)Nc2ccccc2)ccc1=O)Nc1nccs1` | 1.519 |
| `CCN(C(c1cccnc1)c1cc(C)cc(C)c1)S(C)(=O)=O` (stereo unspecified) | 15.82 |
| `N#CC1(NC(=O)COC(=O)Cn2cccn2)CCCC1` | -10.41 |
| `O=C(NCc1nncn1-c1ccccc1)C1CC1` | -20.98 |
| `COc1ccc(CN2CCn3cncc3C2)cc1Cn1cncn1` | 0.1227 |
| `CNC(=O)CCc1cc(C)nc(C2CCCN2)c1` (stereo unspecified) | 13.23 |
| `CCCc1nc(NCCCOC)c2c(n1)c(C)nn2CC` | 88.3 |
| `O=C(O)C(F)(F)F.[H][C@@]12COC[C@]1([H])[C@@H](OCC1CC1)CN2Cc1nccs1` | -56.8 |
| `Cn1cnnc1C1CCN(C(=O)COCc2ccccc2Cl)CC1` | -0.05108 |
| `FC(F)(F)c1n[nH]c2c1CN(CCc1ccccn1)CC2` | -31.49 |
| `O=C(O)C(F)(F)F.[H][C@@]12COC[C@]1([H])[C@@H](OC)CN2Cc1cccc(C#N)c1` | 4.336 |
| `Cc1ncc(-c2ccnc(N3CCCCC3)n2)c(=O)[nH]1` | -5.962 |
| `CC(=O)N1CCN(CCNC(=O)c2nc3ccccc3c(=O)[nH]2)CC1` | -38.55 |
| `CNC(=O)c1cnc(C)nc1CCNC(=O)CCc1ccccc1` | -14.23 |
| `COc1cc(CNCc2ccc(NC(=O)NC(C)C)cc2)cc(OC)c1` | 6.444 |
| `CCn1cc(NC(=O)C(C)n2ncc(Cl)c2C)c(C(=O)OC)n1` (stereo unspecified) | -2.604 |
| `O=C(CCc1nc2cccnc2[nH]1)NCc1ccncc1` | -28.81 |
| `[H][C@@]12CCCN1C[C@H](CCSC)N(Cc1cnn(C=C)c1C)C2` | -16.62 |
| `O=C(O)C(F)(F)F.O=C(O)C(F)(F)F.[H][C@@]12CN(CC)C[C@]1([H])[C@H](OC)CCN2c1ncc(F)cn1` | -55.29 |
| `COc1ccc(C(=O)C2CCCN(CCc3ccccc3)C2)c(OC)c1` (stereo unspecified) | 10.73 |
| `Cc1ccc(CN2C(=O)OCC2CO)c2ccccc12` (stereo unspecified) | 9.15 |
| `O=C(O)C(F)(F)F.[H][C@@]12CN(CC3CCCC3)C[C@]1([H])OCCN2c1ncc(F)cn1` | 9.727 |
| `[H][C@]12CCN[C@@]1([H])CN(C(=O)NCc1ccccc1)C2` | -17.55 |
| `Cc1ccc(CNC2CCCN(Cc3noc(C4CC4)n3)C2)s1` (stereo unspecified) | -23.79 |
| `Cc1ccc(Oc2ncccc2CNC2Cc3ccccc3C2)cn1` | 0.909 |
| `O=c1[nH]c(N2CCN(C3CC3)CC2)nc2c1cnn2-c1ccccc1` | 3.748 |
| `OCCNc1nc(Nc2ccccc2)c2nccnc2n1` | -8.347 |
| `CCCN(C)CC1CCN(c2ncc(Br)cn2)C1` (stereo unspecified) | -58.39 |
| `CCCOc1ccccc1NCC(=O)Nc1ccc(CC)cc1` | -14.03 |
| `O=C(c1cccc(CO)n1)N1CCCC1c1nc2cc(F)ccc2[nH]1` (stereo unspecified) | -27.7 |

6 of the entries, repeated:

| compound | percent effect |
|---|---|
| `N#Cc1cc2c(nc1SCc1cc(O)nc(O)n1)CCCC2` | -33.44 |
| `Cn1ccnc1CN1CCOC(Cc2ccccc2)C1` (stereo unspecified) | -3.356 |
| `COc1cc(Cl)cc(CN2CCCC(N3CCOCC3)C2)c1OC` (stereo unspecified) | -28.73 |
| `O=C(O)C(F)(F)F.[H][C@@]12COC[C@]1([H])[C@@H](OC)CN2Cc1cccc(C#N)c1` | 4.336 |
| `COCC1CC2(CCN(CC3CC3)CC2)CN1c1ncccn1.O=C(O)C(F)(F)F.O=C(O)C(F)(F)F` (stereo unspecified) | -4.821 |
| `Cc1nc(C)n(CC2CN(Cc3cccnc3)Cc3nccn3C2)n1.O=C(O)C(F)(F)F.O=C(O)C(F)(F)F` (stereo unspecified) | -25.78 |